This is one part of the list.
Target: OsWRKY34 (Oryza sativa, UniProt Q0JBA9 1-250)
Assay: protein-binding microarray (RPBM); PBS, 2% BSA, 51.3 ng/ul salmon testes DNA, 50 uM zinc acetate, 200 nM TF, 25 C, 1 h; high values mean tight binding
Conditions: protein: recombinant; tags: N-terminal polyhistidine and DsRed monomer fusion (pET32a); label: CyDye5-dUTP incorporated in the synthesized complementary strand; 3' TTTTT single-stranded linker to array surface; dsDNA, one strand shown
Procedure, shortened: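 Transcription factors were made in E. coli BL21-CodonPlus as N-terminal fusions to a polyhistidine tag and DsRed, then purified on Ni–NTA. After primer extension with Cy5-dUTP and blocking with 2% BSA, a custom Agilent array was exposed for 1 h at 25 °C to 200 nM protein in PBS, 2% BSA, salmon testes DNA and 50 µM zinc acetate. Washed arrays were scanned on an Axon 4000B, and the binding signal is per-feature fluorescence intensity in arbitrary units.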

By UniProt entry, the sequences of proteins in these tests, tags left out.
UniProt Q0JBA9, entry or part of it: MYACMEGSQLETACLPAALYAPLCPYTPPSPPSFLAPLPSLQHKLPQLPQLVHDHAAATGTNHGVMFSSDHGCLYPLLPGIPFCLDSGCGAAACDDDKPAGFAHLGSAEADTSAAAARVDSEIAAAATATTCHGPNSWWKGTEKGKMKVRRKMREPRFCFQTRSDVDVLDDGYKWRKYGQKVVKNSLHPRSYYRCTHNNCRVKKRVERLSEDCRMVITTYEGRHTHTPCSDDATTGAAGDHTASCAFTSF

Q: For “TTTTCCTCGCTGTACTCTTTGCTCTTGCTCGGGCTCCCGCCGGAGTCACCTAGTGCAG”, which binding signal is on record?
A: 11600 fluorescence intensity (a.u.)

Q: For “TTTACGCTTTTCTTTTGTGGCTACTTTGTCAATCTTACAACGGAGTCACCTAGTGCAG”, which binding signal is on record?
A: 9410 fluorescence intensity (a.u.)

Q: How did the binding signal turn out when “ACCGCTGCATTCTTATCTACACCTATCTCTGCAGAACCTGCGGAGTCACCTAGTGCAG” was run?
A: 8220 fluorescence intensity (a.u.)

Q: With “TTTTCAATACCTGGGTAGGGGCAGGTAATTGGGAGGGAATCGGAGTCACCTAGTGCAG” as the sequence, how does the binding signal read?
A: 10400 fluorescence intensity (a.u.)

Q: Which binding signal does the source give for “CACTCTGCCCTACCGCCCATCTCATCCCCATCCATCCGGTCGGAGTCACCTAGTGCAG” here?
A: 13400 fluorescence intensity (a.u.)

Q: With “CACCTCCTTTCCTTGCCGCCTCCGGGAGGGACTCCAAGAACGGAGTCACCTAGTGCAG” as the sequence, how does the binding signal read?
A: 8560 fluorescence intensity (a.u.)

Q: Which binding signal does the source give for “CCTCTGTCGTCTCGTCAGTTTGCCCCTGCCCAGTTGCCCACGGAGTCACCTAGTGCAG” here?
A: 10900 fluorescence intensity (a.u.)

Q: For “GATTTCTTGGCTATAGTTAATATTTGTTGCTGTAACTAACCGGAGTCACCTAGTGCAG”, which binding signal is on record?
A: 8090 fluorescence intensity (a.u.)

Q: Which binding signal does the source give for “ACACACACACACACACACAAAACACAGAGAGAGAGAGAGACGGAGTCACCTAGTGCAG” here?
A: 8200 fluorescence intensity (a.u.)

Q: For “CCCTGCCATCCAGCTCATACATTTCCTATTCAACGGTTGCCGGAGTCACCTAGTGCAG”, which binding signal is on record?
A: 9760 fluorescence intensity (a.u.)

Q: With “CACACCAAACAGCACAATCTCAGTATCGGAATCATCTCACCGGAGTCACCTAGTGCAG” as the sequence, how does the binding signal read?
A: 8950 fluorescence intensity (a.u.)

Q: Which binding signal does the source give for “TTCTCGTTGTCGACGACGCCGAGTCTTTTCATCACGACGCCGGAGTCACCTAGTGCAG” here?
A: 9280 fluorescence intensity (a.u.)

Q: “GTTTAACCAGTGGAGCATTGCTTTATTTCTTCTATATCCACGGAGTCACCTAGTGCAG” was tested. Which binding signal did it give?
A: 10800 fluorescence intensity (a.u.)

Q: For “ATATATATTTCATCCTCACTTAGTTCAGGTTTTTTTTTTCCGGAGTCACCTAGTGCAG”, which binding signal is on record?
A: 8970 fluorescence intensity (a.u.)

Q: How did the binding signal turn out when “CTAGACCACATCTCCATCAACTGCACCCGTGGGGTCGGGGCGGAGTCACCTAGTGCAG” was run?
A: 9130 fluorescence intensity (a.u.)

Q: How did the binding signal turn out when “CTTCTCCTACAAAGTGCCTAGACATCACCACAAATCAACCCGGAGTCACCTAGTGCAG” was run?
A: 8390 fluorescence intensity (a.u.)

Q: For “GTATTTGTCGCCAGTCTGATTTTCGCCCATTGATCGCAAACGGAGTCACCTAGTGCAG”, which binding signal is on record?
A: 10000 fluorescence intensity (a.u.)

Q: Which binding signal does the source give for “GTAACTTTACTGTTTTTTTCAGTGTGGAGAAACTGTAACACGGAGTCACCTAGTGCAG” here?
A: 8170 fluorescence intensity (a.u.)

Q: With “AGTCATTTTAGTATTTCTTACATTTATATTGATGTTAATGCGGAGTCACCTAGTGCAG” as the sequence, how does the binding signal read?
A: 8500 fluorescence intensity (a.u.)

Q: Which binding signal does the source give for “ATGCGACTGTCTTCTTTCATAATCTTTTTTTTATTTTGCTCGGAGTCACCTAGTGCAG” here?
A: 10800 fluorescence intensity (a.u.)

Q: Which binding signal does the source give for “TTTTTTCATCGTGATTTATTTTACAACATTGGCCTTTATACGGAGTCACCTAGTGCAG” here?
A: 9000 fluorescence intensity (a.u.)

Q: Which binding signal does the source give for “CTCTTCTCCTTTTCTTCCCTGTCATCTGTGAGCTTTTGCTCGGAGTCACCTAGTGCAG” here?
A: 10600 fluorescence intensity (a.u.)

Q: With “CTTTCCACCTCTATCCGCCTTCCAGCTACTGTTGCAACTGCGGAGTCACCTAGTGCAG” as the sequence, how does the binding signal read?
A: 11400 fluorescence intensity (a.u.)

Q: For “GGCTTCCTCTCTTCTGCGGCCGCGCGCGATCTCCACACCTCGGAGTCACCTAGTGCAG”, which binding signal is on record?
A: 8040 fluorescence intensity (a.u.)

Q: “GTTTTTATCTCTTATTATCTGTGCTTTCCCGTTTTAATATCGGAGTCACCTAGTGCAG” was tested. Which binding signal did it give?
A: 11200 fluorescence intensity (a.u.)

Q: “TGGGACAAACTTTGACCAATACTTATTCTTTCATGGTATACGGAGTCACCTAGTGCAG” was tested. Which binding signal did it give?
A: 8410 fluorescence intensity (a.u.)

Q: For “CTTCTTTTCGTTTTTCCTCGTTTTCTTTTCTCTCCATCATCGGAGTCACCTAGTGCAG”, which binding signal is on record?
A: 8090 fluorescence intensity (a.u.)

Q: For “CCCACTCTCCACTCTCCACTCCACTCGCTCTCCGTTCACCCGGAGTCACCTAGTGCAG”, which binding signal is on record?
A: 10200 fluorescence intensity (a.u.)

Q: With “CGTCTCACACCCTACCCTGACCGTCCGATCGGATCAACCACGGAGTCACCTAGTGCAG” as the sequence, how does the binding signal read?
A: 9430 fluorescence intensity (a.u.)

Q: Which binding signal does the source give for “CTCTTTTTTTGTTTTAACATTGAACACACTACTTTACAGCCGGAGTCACCTAGTGCAG” here?
A: 9180 fluorescence intensity (a.u.)

Q: Which binding signal does the source give for “CATGTCACTATACTATTATATCCTATTATATCCTATAATACGGAGTCACCTAGTGCAG” here?
A: 8100 fluorescence intensity (a.u.)

Q: For “TGGTGTGGCGATCCTGTGGAGTGTGGTTTGGTTTGGGAGGCGGAGTCACCTAGTGCAG”, which binding signal is on record?
A: 9210 fluorescence intensity (a.u.)

Q: How did the binding signal turn out when “CTACGTCCAGCAGTCCGTCCATCCGTGCTACCTCATCATACGGAGTCACCTAGTGCAG” was run?
A: 8930 fluorescence intensity (a.u.)

Q: For “AATCACCAATTCGACATGGGCACAGAGCTCTCGTTGACTTCGGAGTCACCTAGTGCAG”, which binding signal is on record?
A: 11400 fluorescence intensity (a.u.)

Q: Which binding signal does the source give for “CCAAGCTCCACATATATACTTCTGGTCAGCACCACTTTGACGGAGTCACCTAGTGCAG” here?
A: 9690 fluorescence intensity (a.u.)

Q: With “GCCACATATTTCCAACCCTTCATTTAATTCAGGTGTCATTCGGAGTCACCTAGTGCAG” as the sequence, how does the binding signal read?
A: 10200 fluorescence intensity (a.u.)

Q: How did the binding signal turn out when “TTTTCTCTGTATCTTTTTTCTCCCTTGTTAATGATCTTTTCGGAGTCACCTAGTGCAG” was run?
A: 10700 fluorescence intensity (a.u.)

Q: “CCGCGACTCCACAGTTCACCGCGACACATGCCGCGCAGGCCGGAGTCACCTAGTGCAG” was tested. Which binding signal did it give?
A: 9990 fluorescence intensity (a.u.)

Q: With “TCTAGGTCATGAGAGCGATCGTAAAGGCTTTTTTTCTATTCGGAGTCACCTAGTGCAG” as the sequence, how does the binding signal read?
A: 9230 fluorescence intensity (a.u.)

Q: How did the binding signal turn out when “ACTCATAATATAACTTTGCTATTAATTAGGGGTATTTTGGCGGAGTCACCTAGTGCAG” was run?
A: 8070 fluorescence intensity (a.u.)

Q: How did the binding signal turn out when “TATTTATAGCTAATTTATAGTCCGCTATTGTACCCGCTCTCGGAGTCACCTAGTGCAG” was run?
A: 9140 fluorescence intensity (a.u.)

Q: For “TTCGTGTGTTTCATATTATTTTAAGGTGTGCTAGTTTTTCCGGAGTCACCTAGTGCAG”, which binding signal is on record?
A: 8150 fluorescence intensity (a.u.)

— paper PMC7819943, “Rice protein-binding microarrays: a tool to detect cis-acting elements near promoter regions in rice”
